Among the data in patent US10772893B2, “2-(morpholin-4-yl)-1,7-naphthyridines” (BAYER PHARMA AKTIENGESELLSCHAFT, priority 2014, dated 2020) are IC50 values, retold here.

The test system of the test is Caco-2 cells. Put plainly: Proliferation assay, crystal violet staining. The following applies: Homo sapiens, Caco-2, 96 h, read-out: Inhibition of Caco-2 cell proliferation. The class given is cell-based.

Each structure is given as a SMILES string.

On to `C[C@@H]1COCCN1c1cc(-c2ccnn2C)c2ccnc(-c3ccn[nH]3)c2n1` [Example 111, 2-[(3R)-3-methylmorpholin-4-yl]-4-(1-methyl-1H-pyrazol-5-yl)-8-(1H-pyrazol-5-yl)-1,7-naphthyridine], for which the IC50 turned out to be 237 nM.
